The results in this text go back to PMC13226697, “Stress-induced OMA1-mediated cleavage of AIFM1 suppresses cell growth by controlling mitochondrial OXPHOS activity” (The EMBO Journal, 2026).

Chains of the proteins cited; added tags and fusions are not shown. Lines headed by an entry give the natural chain unless they say otherwise; changes in a name come on top. Residues count along the entry.
UniProt Q9D8H7: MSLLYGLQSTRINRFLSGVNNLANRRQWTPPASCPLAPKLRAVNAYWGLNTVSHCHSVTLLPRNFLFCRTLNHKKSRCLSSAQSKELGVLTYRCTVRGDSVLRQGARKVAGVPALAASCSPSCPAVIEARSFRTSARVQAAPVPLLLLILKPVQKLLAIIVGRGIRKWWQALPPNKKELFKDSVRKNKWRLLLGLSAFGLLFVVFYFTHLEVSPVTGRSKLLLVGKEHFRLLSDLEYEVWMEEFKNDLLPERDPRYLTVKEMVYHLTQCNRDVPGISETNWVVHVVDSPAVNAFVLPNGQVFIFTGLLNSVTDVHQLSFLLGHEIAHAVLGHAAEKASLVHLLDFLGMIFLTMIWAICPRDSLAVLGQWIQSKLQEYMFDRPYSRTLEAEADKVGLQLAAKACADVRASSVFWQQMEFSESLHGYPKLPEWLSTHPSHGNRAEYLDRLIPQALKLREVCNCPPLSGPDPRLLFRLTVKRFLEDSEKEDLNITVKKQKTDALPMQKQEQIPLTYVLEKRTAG
UniProt O35129: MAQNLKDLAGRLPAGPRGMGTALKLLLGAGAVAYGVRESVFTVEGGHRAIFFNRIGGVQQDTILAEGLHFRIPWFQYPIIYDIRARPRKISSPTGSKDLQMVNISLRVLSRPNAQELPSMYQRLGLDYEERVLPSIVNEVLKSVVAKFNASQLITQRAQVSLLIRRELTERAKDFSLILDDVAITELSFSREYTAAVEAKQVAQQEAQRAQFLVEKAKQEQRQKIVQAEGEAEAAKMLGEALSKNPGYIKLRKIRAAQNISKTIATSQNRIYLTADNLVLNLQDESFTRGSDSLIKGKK
UniProt P58281, residues 88-960: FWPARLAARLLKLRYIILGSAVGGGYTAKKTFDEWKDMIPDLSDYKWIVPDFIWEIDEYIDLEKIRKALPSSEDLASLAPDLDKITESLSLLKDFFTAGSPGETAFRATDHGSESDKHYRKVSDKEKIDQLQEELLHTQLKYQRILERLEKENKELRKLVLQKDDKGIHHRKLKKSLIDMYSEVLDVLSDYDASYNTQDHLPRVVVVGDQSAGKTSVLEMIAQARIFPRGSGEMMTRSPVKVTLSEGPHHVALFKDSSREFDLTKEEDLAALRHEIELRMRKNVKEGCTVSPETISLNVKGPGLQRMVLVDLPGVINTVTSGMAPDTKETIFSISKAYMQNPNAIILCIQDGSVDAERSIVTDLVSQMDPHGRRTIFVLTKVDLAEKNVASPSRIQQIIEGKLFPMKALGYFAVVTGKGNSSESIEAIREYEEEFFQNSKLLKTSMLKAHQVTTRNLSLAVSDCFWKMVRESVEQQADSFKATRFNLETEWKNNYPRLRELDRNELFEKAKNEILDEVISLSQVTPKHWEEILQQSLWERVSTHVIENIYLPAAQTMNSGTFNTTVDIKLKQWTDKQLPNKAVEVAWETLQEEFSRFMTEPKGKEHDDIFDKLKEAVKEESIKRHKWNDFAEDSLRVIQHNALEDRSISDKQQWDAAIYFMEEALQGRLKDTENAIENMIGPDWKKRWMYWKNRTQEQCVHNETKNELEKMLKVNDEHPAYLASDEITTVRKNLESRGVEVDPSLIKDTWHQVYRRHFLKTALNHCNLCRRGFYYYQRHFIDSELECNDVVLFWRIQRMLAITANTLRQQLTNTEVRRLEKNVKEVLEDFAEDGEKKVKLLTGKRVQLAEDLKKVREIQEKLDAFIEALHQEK
UniProt Q9Z0X1: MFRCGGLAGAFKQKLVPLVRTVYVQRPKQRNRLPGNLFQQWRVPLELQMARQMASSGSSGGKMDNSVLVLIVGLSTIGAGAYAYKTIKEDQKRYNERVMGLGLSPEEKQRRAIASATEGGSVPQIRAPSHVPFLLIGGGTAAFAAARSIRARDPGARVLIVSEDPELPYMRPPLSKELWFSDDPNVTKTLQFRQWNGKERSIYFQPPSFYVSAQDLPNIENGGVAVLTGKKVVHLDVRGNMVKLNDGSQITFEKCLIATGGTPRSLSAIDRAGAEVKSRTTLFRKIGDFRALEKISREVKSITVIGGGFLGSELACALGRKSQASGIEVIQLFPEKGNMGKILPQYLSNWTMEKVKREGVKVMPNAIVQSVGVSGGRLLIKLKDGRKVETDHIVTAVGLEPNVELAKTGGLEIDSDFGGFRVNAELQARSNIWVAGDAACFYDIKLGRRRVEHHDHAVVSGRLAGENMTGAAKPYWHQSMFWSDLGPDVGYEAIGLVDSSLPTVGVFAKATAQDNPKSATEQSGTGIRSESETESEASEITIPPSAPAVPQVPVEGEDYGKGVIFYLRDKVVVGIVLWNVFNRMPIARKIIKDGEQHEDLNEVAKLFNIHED

Results are given in words; binding and its absence hold for the method and conditions named. In cells and extracts the contact can be indirect. A yes stands for co-enrichment or nearness to the bait. Other partners may have been found.

The test deals with carboxyl-terminal Myc-tagged murine OMA1 (murine) (UniProt Q9D8H7). Kind of test: affinity purification with mass spectrometry; OMA1 KO MEFs with or without OMA1/Myc, 0.2% formaldehyde 15 min 37 °C, mitochondria lysed in 0.5% digitonin, anti-Myc (My3) and Protein G beads, label-free LC-MS/MS; some hits re-measured by PRM.

In the case of “PHB2, endogenous mouse (from UniProt O35129 1-299)”, the binding result is reported as “binds”.
To “OPA1, endogenous mouse (from UniProt P58281 88-960)” belongs “binds”; to “apoptosis-inducing factor mitochondria-associated 1 (AIFM1), endogenous mouse (from UniProt Q9Z0X1)”, “binds”.

B1: HTRA2/Omi, endogenous mouse (enzyme, UniProt Q9JIY5 134-458)
chain: AVPAPPPTSPRSQYNFIADVVEKTAPAVVYIEILDRHPFSGREVPISNGSGFVVASDGLIVTNAHVVADRRRVRVRLPSGDTYEAMVTAVDPVADIATLRIQTKEPLPTLPLGRSADVRQGEFVVAMGSPFALQNTITSGIVSSAQRPARDLGLPQNNVEYIQTDAAIDFGNSGGPLVNLDGEVIGVNTMKVTAGISFAIPSDRLREFLHRGEKKNSWFGTSGSQRRYIGVMMLTLTPSILIELQLREPSFPDVQHGVLIHKVILGSPAHRAGLRPGDVILAIGEKLAQNAEDVYEAVRTQSQLAVRIRRGSETLTLYVTPEVTE
With B1, the binding entry was “binds”.

B2: PHB1, endogenous mouse (protein, UniProt P67778 1-272)
chain: MAAKVFESIGKFGLALAVAGGVVNSALYNVDAGHRAVIFDRFRGVQDIVVGEGTHFLIPWVQKPIIFDCRSRPRNVPVITGSKDLQNVNITLRILFRPVASQLPRIYTSIGEDYDERVLPSITTEILKSVVARFDAGELITQRELVSRQVSDDLTERAATFGLILDDVSLTHLTFGKEFTEAVEAKQVAQQEAERARFVVEKAEQQKKAAIISAEGDSKAAELIANSLATAGDGLIELRKLEAAEDIAYQLSRSRNITYLPAGQSVLLQLPQ
In the case of B2, the binding result is recorded as “binds”.

B3: MIC25, endogenous mouse (protein, UniProt Q91VN4 1-273)
chain: MGSAESAEARRVSFEMDEEERVRVLQGIRLSESVVNRMKDCSQPSAGEQLVPGFGPSSSAPVPTVPLPAISVPTVPAPTTPVPTAPSSSVRGLPGGTCKGPLTDVKVPSAESGGGLQSSAVKEDLKKFQQEQLAVQDEMVRVAKKEKEAAEKHLKASLPKKKASLTHEQQQSARLARELEDREAELSRRDTFYKEQQGRIQEKNAELYKLSSQQFHEAASKAESTIKPRRVEPVCSGLQAQILRCYRDHLHEVLLCSDLVKAYQHCVSTARKG
B3: the binding entry is “binds”.

B4: MIC19, endogenous mouse (protein, UniProt Q9CRB9 1-227)
chain: MGGTASTRRVTFEADENENITVVKGIRLSENVIDRMKESSPSGSKSQRYSSVYGASVSDEDLKRRVAEELALEQAKKESEHQRRLKQARDLERERAAANEQLTRAVLRERISSEEERMKAKHLARQLEEKDRVMRKQDAFYKEQLARLEERSSEFYKVTTEEYQKAAEEVEAKFKRYEYHPVCADLQTKILQCYRQNTQQTLSCSALASQYMHCVNHAKQSMLEKGG
Consider B4, for which the binding result was “binds”.

B5: MIC27, endogenous mouse (protein, UniProt Q78IK4 28-265)
chain: EEEPKKQLVRPDQLPIYTAPPLHSKYVEEQPGNLQRGFASIRTTTVYYIGWCKSIYLFMKNGVMDTVQFGKDAYVYLKNPPQDFLPKMGVITASGLAGLLSARKGSRFKKIAYPLGLATLGATVCYPAQSVIIAKITGKKAYATSQQIFQAIKSLWTQKSENESLPEPKEESKEGRSDEIHASLPDLKHSVSLPKELASATVIKSESTSGTTQFIPDPKLMDHGQSHPDDKDMYSTRS
Consider B5, for which the binding entry was “binds”.
